Some of these results come from one statement about several compounds together.
Assays:
[1] = target: T1, human H1 receptor (Homo sapiens, UniProt P35367); assay: Histamine H1 functional antagonist assay (FLIPR, histamine induced increase in fluorescence); type: cell-based; conditions: hydrochloride salts tested, Cheng-Prusoff equation, averages of a number of experiments
T1 construct: expressed in transfected cells

Chains of the proteins cited; added tags and fusions are not shown. Lines headed by an entry give the natural chain unless they say otherwise; changes in a name come on top.
UniProt P35367, whole entry: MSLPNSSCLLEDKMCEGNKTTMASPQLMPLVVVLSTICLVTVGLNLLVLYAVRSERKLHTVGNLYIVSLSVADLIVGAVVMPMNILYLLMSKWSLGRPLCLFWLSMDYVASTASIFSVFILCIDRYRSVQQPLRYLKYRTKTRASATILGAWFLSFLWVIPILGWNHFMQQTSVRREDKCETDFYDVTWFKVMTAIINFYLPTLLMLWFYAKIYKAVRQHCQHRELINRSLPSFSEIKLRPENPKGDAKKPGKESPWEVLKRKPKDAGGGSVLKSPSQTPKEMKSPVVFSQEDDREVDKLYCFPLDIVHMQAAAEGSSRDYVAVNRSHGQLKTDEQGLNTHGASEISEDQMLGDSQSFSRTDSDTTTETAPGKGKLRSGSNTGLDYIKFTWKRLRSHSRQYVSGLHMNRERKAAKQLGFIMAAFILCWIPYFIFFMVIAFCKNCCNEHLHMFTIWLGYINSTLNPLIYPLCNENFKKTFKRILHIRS
UniProt Q9Y5N1: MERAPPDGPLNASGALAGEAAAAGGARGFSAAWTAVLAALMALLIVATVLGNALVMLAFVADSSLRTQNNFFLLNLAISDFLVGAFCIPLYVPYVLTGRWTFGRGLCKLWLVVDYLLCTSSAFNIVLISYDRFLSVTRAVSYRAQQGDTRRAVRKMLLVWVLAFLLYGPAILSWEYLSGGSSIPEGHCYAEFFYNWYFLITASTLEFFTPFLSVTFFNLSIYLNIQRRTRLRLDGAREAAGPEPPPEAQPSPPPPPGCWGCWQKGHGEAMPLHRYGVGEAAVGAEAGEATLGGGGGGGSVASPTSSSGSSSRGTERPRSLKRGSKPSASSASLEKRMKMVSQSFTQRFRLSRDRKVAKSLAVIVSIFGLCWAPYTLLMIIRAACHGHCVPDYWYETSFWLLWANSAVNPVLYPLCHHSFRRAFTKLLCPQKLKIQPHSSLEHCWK

[2] = target: T2, histamine H3 receptors (Homo sapiens, UniProt Q9Y5N1); assay: Histamine H3 functional antagonist assay ([35S]-GTPγS SPA on membranes from H3 cells); type: biochemical; conditions: hydrochloride salts tested; H3 functional antagonist assay using membrane prepared from cultured H3 cells; averages of a number of experiments
T2 construct: expressed in transfected cells; host or cells: CHO K1 cells carrying pSwitch, transfected with pGeneH3, induced with mifepristone; clone 3H3; membrane preparation
In short: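 Membranes came from CHO K1 cells carrying a mifepristone-inducible (GeneSwitch) human H3 receptor, clone 3H3. Expression was induced with 10 nM mifepristone for 18 h. Membranes were prepared at 4 °C in 50 mM HEPES/1 mM EDTA pH 7.4 with protease inhibitors.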

## NC(=O)c1ccc(-c2nc3c(s2)CCN(C2CCC2)CC3)cn1 [Example E100, 5-(6-Cyclobutyl-5,6,7,8-tetrahydro-4H-[1,3]thiazolo[4,5-d]azepin-2-yl)-2-pyridinecarboxamide]
[1]
  functional pKi (fpKi): < 5.6
[2]
  functional pKi (fpKi): > 7.5

## O=C(c1ccc(-c2nc3c(s2)CCN(C2CCC2)CC3)cn1)N1CCCC1 [Example E101, 6-Cyclobutyl-2-[6-(1-pyrrolidinylcarbonyl)-3-pyridinyl]-5,6,7,8-tetrahydro-4H-[1,3]thiazolo[4,5-d]azepine]
[1]
  functional pKi (fpKi): < 5.6
[2]
  functional pKi (fpKi): > 7.5

## Cc1noc(-c2ccc(-c3nc4c(s3)CCN(C3CCC3)CC4)cn2)n1 [Example E102, 6-Cyclobutyl-2-[6-(3-methyl-1,2,4-oxadiazol-5-yl)-3-pyridinyl]-5,6,7,8-tetrahydro-4H-[1,3]thiazolo[4,5-d]azepine]
[1]
  functional pKi (fpKi): < 5.6
[2]
  functional pKi (fpKi): > 7.5

## N#Cc1cccc(-c2nc3c(s2)CCN(C2CCCC2)CC3)c1 [Example E113, 3-(6-Cyclopentyl-5,6,7,8-tetrahydro-4H-[1,3]thiazolo[4,5-d]azepin-2-yl)benzonitrile]
[1]
  functional pKi (fpKi): < 5.6
[2]
  functional pKi (fpKi): > 7.5

## N#Cc1ccc(C(=O)N2CCC(c3nc4c(s3)CCN(C3CCC3)CC4)CC2)cc1 [Example E115, 4-{[4-(6-Cyclobutyl-5,6,7,8-tetrahydro-4H-[1,3]thiazolo[4,5-d]azepin-2-yl)-1-piperidinyl]carbonyl}benzonitrile]
[1]
  functional pKi (fpKi): < 5.6
[2]
  functional pKi (fpKi): > 7.5

Reference: patent publication US20080161289A1, “Fused Thiazole Derivatives Having Affinity for the Histamine H3 Receptor” (Glaxo Group Limited, priority 2005, published 2008)
